The whole screen tested about 220,000 compounds, of which about 2,400 (1.1%) were called active. The shares of active, inactive and inconclusive entries below differ from those in the screen. Calls follow the shape of the dose curve; as a rule, active = well fitted inhibition curve with a large enough effect; inconclusive = small, poorly fitted or top-dose-only effect, or effect the other way; inactive = no such curve, though single readings can be large or run the other way. Potencies beside an inconclusive call are fits to weak or partial responses and may not hold up.
experiment: qHTS Multiplex Assay to Identify Dual Action Probes in a Cell Model of Huntington: Aggregate Formation (GFP); settings: PC12 HttQ103-GFP aggregates, Acumen cytometry, 40 h; activity change, negative = inhibition: at 46.1 µM (top of the series) unless noted; also: nearly all actives have a fitted effect of over 60% in size
Method in brief: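 Quantitative HTS on tebufenozide-induced (100 nM) PC12 cells stably expressing polyQ103 Huntingtin exon 1–GFP. Reduction of bright GFP aggregates, detected by laser scanning cytometry after lysis, identified actives across the titration.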
% is scaled to controls: 0 for no effect and ±100 for the full control effect; potency is read from the fitted curve at half-maximal effect.

| Compound | activity change, negative = inhibition | Potency |
| --- | --- | --- |
| OCCOCCn1c2ccccc2c2ccccc21 | inactive: 4.94% | – |
| O=C(Nc1nc2c(ccc3ccccc32)s1)c1ccco1 | – | inconclusive: 22.4 µM [inhibitor, single point] |
| CCCCNC(=O)c1ccccc1C(=O)NCCCC | – | inconclusive: 0.794 µM [inhibitor, single point] |
| Cc1cc(C)c2c(=O)n(CC(=O)NCCCN3CCOCC3)sc2n1 | inactive: -7.61% | – |
| COc1ccc(C(=O)Nc2ccc(C3=NNC(=O)CC3C)cc2NC(=O)c2ccc(OC)cc2)cc1 (centres undefined) | inactive: -1.33% | – |
| Cc1ccc(N2C(=O)C3C(C2=O)C(C(=O)c2ccc(Cl)cc2)N2CCCC32)cc1 (centres undefined) | – | inconclusive: 25.1 µM [activator, partial curve] |
| Cc1nc2ccccc2n1C(=O)c1ccccc1[N+](=O)[O-] | – | active: 0.141 µM |
| CCC(Sc1ccc2nnc(-c3ccc(OC)c(OC)c3)n2n1)C(=O)O (centres undefined) | inactive: -3.41% | – |
| CC1(C)Cc2ccccc2-c2nnc(-c3ccccc3)n21 | inactive: -15.2% | – |
| CCc1nnc(NC(=O)c2cccc(C(=O)Nc3nnc(CC)s3)n2)s1 | – | active: 0.891 µM |
| CC1(C)CC2CC(C)(CN2C(=O)CN2C(=O)c3ccccc3C2=O)C1 (centres undefined) | inactive: -11.3% | – |
| Cc1ccc(-c2ccc(/C=N/N3C(=O)C4C5C=CC(CC5)C4C3=O)o2)c([N+](=O)[O-])c1 (centres undefined) | inactive: -31.5% | – |
| N#Cc1c(Cl)nsc1NN | – | inconclusive: 2.82 µM [inhibitor, partial curve] |
| O=C1CS/C(=N/N=C/c2ccccc2OS(=O)(=O)c2ccccc2)N1 | – | inconclusive: 25.1 µM [inhibitor, single point] |
| O=C(Cn1c(N2CCN(C/C=C/c3ccccc3)CC2)nc2ccccc21)c1ccccc1 | – | inconclusive: 25.1 µM [inhibitor, single point] |
| O=C(Cn1cnc2c(nnn2Cc2ccc(Cl)cc2)c1=O)OCc1ccccc1 | inactive: -0.938% | – |
| CC(=O)NC1=NC(=O)/C(=C/c2cn(C(C)=O)nc2-c2ccccc2)S1 | – | inconclusive: 14.1 µM [inhibitor, single point] |
| Cc1sc(NC(=O)c2sc3nc4c(C)cccc4cc3c2N)c(C#N)c1C | – | inconclusive: 35.5 µM [inhibitor, single point] |
| COc1cccc(COc2cc3ccccc3nc2C)c1 | – | active: 1.78 µM |
| CN(C)NC(=S)Nc1cccc(Cl)c1 | inactive: -20.5% [at 9.22 µM] | – |
| N#CCCN(C(=O)CSc1ccc2c(c1)OCCO2)c1ccccc1 | – | inconclusive: 1.26 µM [inhibitor, single point] |
| Cc1ccccc1N=C(NOCc1ccc(Cl)cc1Cl)c1nonc1N | – | inconclusive: 35.5 µM [inhibitor, single point] |
| COC(=O)c1nn(-c2ccc(OC)cc2)c(=O)c2c(N)sc(C)c12 | inactive: -13% | – |
| COc1ccc(NC(=O)c2ccco2)cc1NC(=O)c1cccc(OC(C)C)c1 | – | inconclusive: 35.5 µM [inhibitor, single point] |
| Fc1ccccc1-c1csc(=Nc2cccnc2)n1CCCn1ccnc1 | – | active: 35.5 µM |

| Compound | activity change, negative = inhibition | Potency |
| --- | --- | --- |
| Cc1cc(Br)cc2cn[nH]c12 | inactive: -29.3% | – |
| N#C/C(=C\c1ccc(N2CCCCC2)o1)C(=O)Nc1cccc(Br)c1 | – | inconclusive: 1 µM [inhibitor, partial curve, poor fit] |
| O=C1CCCc2nc(N3CCN(C(c4ccccc4)c4ccccc4)CC3)ncc21 | – | inconclusive: 20 µM [inhibitor, partial curve] |
| Cc1cc(C(=O)CN2C(=O)NC3(CCCc4sccc43)C2=O)c(C)n1-c1ccccc1 (centres undefined) | – | active: 22.4 µM |
| COc1ccc(-c2nc(-c3ccc(NC(=O)c4ccncc4)cc3)no2)cc1OC | – | inconclusive: 11.2 µM [inhibitor, partial curve] |
| CC(C)CC(=O)NC(=S)Nc1cccc(NC(=O)c2ccccc2)c1 | – | inconclusive: 1.26 µM [inhibitor, single point] |
| O=C(Nc1ccc(Cl)c(Cl)c1)c1cccc(S(=O)(=O)NCc2cccnc2)c1 | – | inconclusive: 11.2 µM [inhibitor, single point] |
| Cc1ccc(N=C(NO)c2nonc2N)cc1 | – | inconclusive: 35.5 µM [inhibitor, single point] |
| Cc1ccc(OCCN2CCN(CC(O)Cn3c4ccccc4c4ccccc43)CC2)cc1 (centres undefined) | – | inconclusive: 25.1 µM [inhibitor, single point] |
| CCN=C(Nc1ccc2c(c1)OCO2)SC1CC(=O)N(c2ccccc2F)C1=O (centres undefined) | inactive: -32.1% | – |
| COc1cccc(NC(=O)c2ncn[nH]2)c1 | – | inconclusive: 0.562 µM [inhibitor, full curve, poor fit] |
| O=c1cc(N2CCCCC2)c(-c2ccccc2)nn1Cc1ccccc1Cl | – | inconclusive: 35.5 µM [inhibitor, single point] |
| Cc1nn(C)c(Oc2ccccc2)c1CCNS(=O)(=O)c1ccc(Cl)cc1 | – | inconclusive: 35.5 µM [inhibitor, single point] |
| COc1cc2nc(=S)n3[nH]c(CCn4nc(C)cc4C)nc3c2cc1OC | – | inconclusive: 2.51 µM [activator, single point] |
| CC(C)(O)C1Cc2cc(/C=C/C(=O)O)c(O)cc2O1 (centres undefined) | inactive: 2.17% [at 9.22 µM] | – |
| O=C(CSCc1c(F)cccc1Cl)Nc1ccccc1C(=O)N1CCOCC1 | inactive: 0.861% | – |
| CC(C)NC(=O)c1onc(CSc2ccc(C(C)C)cc2)c1C(=O)O | – | inconclusive: 15.8 µM [inhibitor, single point] |
| COc1cc(C)c(NC(=O)C(=S)NCCc2ccccc2)cc1C | – | inconclusive: 11.2 µM [inhibitor, single point] |
| O=C(Cc1cccs1)N1CCN(c2ccc(F)cc2)CC1 | inactive: 8.93% | – |
| CN(C)CCCN(CCCNC(=O)/C=N/O)Cc1ccccc1 | – | active: 35.5 µM |
| Nc1nc(Cl)nc2c1ncn2[C@H]1C[C@H](O)[C@@H](CO)O1 | – | inconclusive: 4.47 µM [inhibitor, full curve, poor fit] |
| Cc1ccc(NC(=O)Cn2cnc3ccccc32)cc1C | – | inconclusive: 8.91 µM [inhibitor, partial curve] |
| CC1CCCCC1n1c(=S)[nH]c2ccccc2c1=O (centres undefined) | – | active: 20 µM |
| COc1ccc(C(=O)C2CCCN(C3Cc4ccccc4C3)C2)c(OC)c1 (centres undefined) | inactive: -1.2% [at 9.22 µM] | – |
| Cn1c(N)c(C(=O)c2cc(-c3ccncc3)nc3ccccc23)c(=O)n(C)c1=O | – | inconclusive: 20 µM [activator, partial curve] |

4 entries from above, as comma-separated lines:
Compound,"activity change, negative = inhibition",Potency
Nc1nc(Cl)nc2c1ncn2[C@H]1C[C@H](O)[C@@H](CO)O1,–,"inconclusive: 4.47 µM [inhibitor, full curve, poor fit]"
Cc1ccc(NC(=O)Cn2cnc3ccccc32)cc1C,–,"inconclusive: 8.91 µM [inhibitor, partial curve]"
CC1CCCCC1n1c(=S)[nH]c2ccccc2c1=O (centres undefined),–,active: 20 µM
COc1ccc(C(=O)C2CCCN(C3Cc4ccccc4C3)C2)c(OC)c1 (centres undefined),inactive: -1.2% [at 9.22 µM],–

Going on with the list.

| Compound | activity change, negative = inhibition | Potency |
| --- | --- | --- |
| Cc1ccc(-n2nc3ccc(NC(=O)/C=C/c4ccco4)cc3n2)cc1C | – | inconclusive: 7.08 µM [activator, partial curve] |
| COc1ccc(C(=O)C2CCCN(C(=O)CCc3ccccn3)C2)c(C)c1 (centres undefined) | inactive: -2.45% [at 9.22 µM] | – |
| CC(C)(C)C1CCc2c(sc(N)c2C(N)=O)C1 (centres undefined) | inactive: 6.58% | – |
| CN(C)C(=O)CCCc1nc(-c2ccc(Cl)cc2)no1 | inactive: -26% | – |
| Cc1oc(=O)c(NC(=O)c2ccccc2)cc1C(=O)c1ccccc1 | – | inconclusive: 35.5 µM [inhibitor, single point] |
| N/C(=N\OC(=O)COc1ccc(Cl)cc1Cl)c1ccncc1 | inactive: -5.28% [at 9.22 µM] | – |
| O=C(NCc1ccccc1)C1(c2ccccc2)CCN(S(=O)(=O)c2ccccc2)CC1 | inactive: -10.5% | – |
| O=C(c1cccc(Br)c1)c1cn(-c2ccccc2)nc1C(=O)c1ccccc1 | – | inconclusive: 0.631 µM [inhibitor, single point] |
| CC[C@@H](C(=O)n1nc(C)cc1C)[C@H](NS(=O)(=O)c1ccc(C)cc1)c1ccccc1 | – | inconclusive: 35.5 µM [inhibitor, single point] |
| Cc1ccc(S(=O)(=O)N(C)CCCC(=O)Nc2ccncc2)cc1 | – | inconclusive: 11.2 µM [inhibitor, partial curve] |
| COc1ccc(CCNC2CC(=O)N(CCc3ccc(OC)c(OC)c3)C2=O)cc1 (centres undefined) | inactive: -1.58% | – |
| Cc1cc(-c2n[nH]c(=S)n2/N=C/c2ccc(C)s2)n[nH]1 | inactive: 2.5% | – |
| Cc1ccc(NC2c3ncccc3C(=O)N2Cc2cccs2)cc1 (centres undefined) | inactive: -2% | – |
| COCc1nnc(NC(=O)c2ccc(S(=O)(=O)N(CC(C)C)CC(C)C)cc2)o1 | – | inconclusive: 11.2 µM [inhibitor, partial curve] |
| C=C1C(=O)O[C@@H]2[C@@H]1CC/C(C)=C\CC[C@@]1(C)O[C@H]21 | – | active: 14.1 µM |
| COc1ccc(C(C(=O)NC2CCCC2)N(C(=O)c2snc(-c3ccc(F)cc3)c2N)c2ccc(F)cc2)cc1 (centres undefined) | – | inconclusive: 12.6 µM [activator, partial curve, poor fit] |
| COc1ccc(N2CCN(CC(=O)Nc3ccc(SC(F)F)cc3)CC2)cc1 | – | inconclusive: 5.62 µM [inhibitor, single point] |
| CCn1cc(C(=O)O)c(=O)c2cc(S(=O)(=O)N(C)C)ccc21 | – | inconclusive: 6.31 µM [activator, single point] |
| Cc1nc([N+](=O)[O-])c(Br)n1CC(=O)c1cccc([N+](=O)[O-])c1 | – | inconclusive: 5.62 µM [inhibitor, single point] |
| CSc1nsc(/C=C/Nc2ccc(C)c(C)c2)c1C#N | – | inconclusive: 10 µM [inhibitor, single point] |
| N#CC1(NC(=O)CN2CCN(S(=O)(=O)c3ccccc3F)CC2)CCCC1 | inactive: 21.7% [at 9.22 µM] | – |
| O=C(NCc1cccs1)C1CCC(CNS(=O)(=O)c2ccccc2)CC1 (centres undefined) | inactive: 13% | – |
| O=C(CCCOc1ccc(Cl)cc1Cl)NCCCO | inactive: -2.86% | – |
| CCN1/C(=C/C(=O)c2ccco2)Sc2ccccc21 | – | inconclusive: 35.5 µM [inhibitor, single point] |

From PubChem BioAssay AID1688 (National Center for Advancing Translational Sciences (NCATS), 2009)
